Laboratory results published in paper PMC12881681 (Molecular Pharmacology, 2025).

Tested on: AOX1
Assay: Risk ratio of clinical drug interaction (FDA guideline formula)
Set-up: species or system human
Conditions: kdeg 0.00033 min^–1 (average of 7 CYP enzymes); ratio ≥ 1.25 requires further investigation

C#Cc1cccc(Nc2ncnc3cc(OCCOC)c(OCCO)cc23)c1 [O-Desmethylerlotinib, O-desmethylerlotinib]
risk ratio (kobs + kdeg) / kdeg: 30–66

C#Cc1cccc(Nc2ncnc3cc(OCCO)c(OCCO)cc23)c1 [O-Didesmethylerlotinib, O-didesmethylerlotinib]
risk ratio (kobs + kdeg) / kdeg: 2.5–8.3
